As usually defined, the IC50 is the concentration that inhibits the measured activity by half.

Sequences of proteins named here, by UniProt entry; tags and fusion partners are left off.
UniProt Q08881, whole entry: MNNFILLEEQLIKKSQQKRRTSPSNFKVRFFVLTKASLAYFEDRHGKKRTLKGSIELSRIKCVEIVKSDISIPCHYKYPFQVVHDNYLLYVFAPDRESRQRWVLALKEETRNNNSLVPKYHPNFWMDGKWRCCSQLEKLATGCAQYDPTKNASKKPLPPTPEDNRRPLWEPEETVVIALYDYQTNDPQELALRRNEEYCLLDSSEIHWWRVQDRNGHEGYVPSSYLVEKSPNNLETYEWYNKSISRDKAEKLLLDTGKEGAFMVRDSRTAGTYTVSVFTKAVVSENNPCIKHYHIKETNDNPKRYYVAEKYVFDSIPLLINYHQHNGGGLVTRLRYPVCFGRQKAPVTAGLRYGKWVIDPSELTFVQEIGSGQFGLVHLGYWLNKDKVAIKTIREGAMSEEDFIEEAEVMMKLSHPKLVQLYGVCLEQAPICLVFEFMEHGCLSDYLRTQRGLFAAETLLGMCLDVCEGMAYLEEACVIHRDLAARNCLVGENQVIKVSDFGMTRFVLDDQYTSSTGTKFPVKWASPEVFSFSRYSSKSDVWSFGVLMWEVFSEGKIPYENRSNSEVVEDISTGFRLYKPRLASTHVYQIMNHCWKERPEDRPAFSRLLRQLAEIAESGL

Structures were worked out from names or drawings and are uncertain.

The assay concerns the target Itk (Homo sapiens, UniProt Q08881). Put plainly: Itk in vitro inhibitory activity in radioassay (33P incorporation into Phospholipase C-γ-1). As to conditions: read-out: IC50 over Itk, 20 μM ATP solution. As to the method:
The Itk protein kinase activity (Invitrogen) was determined by measuring the incorporation of ^33P from γ-[^33P] ATP into the Phospholipase C-γ-1 substrate (Calbiochem). The dilution series of the compound of the present invention were dissolved in DMSO. The diluted solution (1 μl) of the compounds of the present invention in DMSO was added to a 96-well assay plate. Additionally, Itk kinase solution (39 μL) composed of 3.2 nM Itk (Invitrogen) in reaction buffer (12.5 mM Tris (pH 7.5), 0.01% Triton X-100, 5% glycerol, 10 mM MgCl2, 1 mM EGTA, 5 mM glycerol 2-phosphate, 2 mM DTT and 0.5 mM sodium orthovanadate) was added to the assay plates. The solution was pre-incubated for 20 minutes at 30° C. with shaking. Then ATP/substrate solution (10 μl) composed of […] Phospholipase C-γ-1 (Calbiochem), 1.5% v/v γ-^33P-ATP (PerkinElmer), 20 μM ATP and reaction buffer was added. After incubating at 30° C. with shaking for 70 minutes, the reaction was stopped by adding 10 μl of 0.6 M phosphoric acid to each well. The each reaction from the assay plate was transferred and captured on a phosphocellulose 96-well plate (Millipore MAPHNOB). The reaction mixture was analyzed on the PerkinElmer TopCount NXT HTS 96-well Liquid Scintillation counter.
Inhibition rate (%) of the compound was calculated with the following formula: Inhibition rate(%)={1−(Bx−B100)/(B0−B100)}×100 […]

Regarding `Cc1c(C(=O)Nc2ccc(-c3cc(-c4cccc(-c5cc[nH]n5)c4)cnc3N)cc2)c(=O)n(-c2cccc(Cl)c2)n1C`, the 50% inhibitory concentration (IC50) is 3 nM.

These data come from patent publication US8962623B2, “Aminopyrazine compounds” (Locus Pharmaceuticals, Inc., priority 2011, dated 2015).
